For this assay, the system named is tubulin. Briefly: inhibition of [3H]colchicine binding to tubulin. As to conditions: 100 μM inhibitor, 1.0 μM tubulin, 2 μM [3H]colchicine, 5% DMSO, 10 min at 37° C.

As for `CC/C(=C(/CC)c1ccc(O)cc1)c1ccc(O)cc1` [Diethylstilbestrol, reference compound], the “Percent inhibition ± S.D. of colchicine binding to tubulin” value is given as 30 ± 4%.

Source of the values: patent US6723858B2, “Estrogenic compounds as anti-mitotic agents” (The Children's Medical Center Corporation, priority 1993, dated 2004).
